Data from publication PMC10873199.
Results are given in words; binding and its absence hold for the method and conditions named. In cells and extracts the contact can be indirect. Some results given as binding are weak or reduced against the parent protein; the word gives no strength. Where a sequence is shown, tags or fusion partners need not be part of it.

By UniProt entry, the sequences of proteins in these tests, tags left out.
UniProt P78395: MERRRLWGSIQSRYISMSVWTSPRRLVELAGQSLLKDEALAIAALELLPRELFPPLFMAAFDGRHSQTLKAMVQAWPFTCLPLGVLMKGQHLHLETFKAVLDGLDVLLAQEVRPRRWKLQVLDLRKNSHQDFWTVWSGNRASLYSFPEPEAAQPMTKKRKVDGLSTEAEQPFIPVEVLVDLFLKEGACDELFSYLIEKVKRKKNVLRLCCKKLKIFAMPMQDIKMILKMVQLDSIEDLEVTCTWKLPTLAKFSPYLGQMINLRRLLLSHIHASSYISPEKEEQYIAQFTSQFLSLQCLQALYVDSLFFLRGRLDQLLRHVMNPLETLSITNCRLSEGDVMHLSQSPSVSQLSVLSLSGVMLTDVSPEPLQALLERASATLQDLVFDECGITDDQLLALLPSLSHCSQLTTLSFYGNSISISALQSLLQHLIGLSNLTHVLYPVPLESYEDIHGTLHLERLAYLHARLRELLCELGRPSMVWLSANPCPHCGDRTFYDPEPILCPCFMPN

T1: STAG2 (human (endogenous in Mel290)) (UniProt Q8N3U4)
T1 sequence: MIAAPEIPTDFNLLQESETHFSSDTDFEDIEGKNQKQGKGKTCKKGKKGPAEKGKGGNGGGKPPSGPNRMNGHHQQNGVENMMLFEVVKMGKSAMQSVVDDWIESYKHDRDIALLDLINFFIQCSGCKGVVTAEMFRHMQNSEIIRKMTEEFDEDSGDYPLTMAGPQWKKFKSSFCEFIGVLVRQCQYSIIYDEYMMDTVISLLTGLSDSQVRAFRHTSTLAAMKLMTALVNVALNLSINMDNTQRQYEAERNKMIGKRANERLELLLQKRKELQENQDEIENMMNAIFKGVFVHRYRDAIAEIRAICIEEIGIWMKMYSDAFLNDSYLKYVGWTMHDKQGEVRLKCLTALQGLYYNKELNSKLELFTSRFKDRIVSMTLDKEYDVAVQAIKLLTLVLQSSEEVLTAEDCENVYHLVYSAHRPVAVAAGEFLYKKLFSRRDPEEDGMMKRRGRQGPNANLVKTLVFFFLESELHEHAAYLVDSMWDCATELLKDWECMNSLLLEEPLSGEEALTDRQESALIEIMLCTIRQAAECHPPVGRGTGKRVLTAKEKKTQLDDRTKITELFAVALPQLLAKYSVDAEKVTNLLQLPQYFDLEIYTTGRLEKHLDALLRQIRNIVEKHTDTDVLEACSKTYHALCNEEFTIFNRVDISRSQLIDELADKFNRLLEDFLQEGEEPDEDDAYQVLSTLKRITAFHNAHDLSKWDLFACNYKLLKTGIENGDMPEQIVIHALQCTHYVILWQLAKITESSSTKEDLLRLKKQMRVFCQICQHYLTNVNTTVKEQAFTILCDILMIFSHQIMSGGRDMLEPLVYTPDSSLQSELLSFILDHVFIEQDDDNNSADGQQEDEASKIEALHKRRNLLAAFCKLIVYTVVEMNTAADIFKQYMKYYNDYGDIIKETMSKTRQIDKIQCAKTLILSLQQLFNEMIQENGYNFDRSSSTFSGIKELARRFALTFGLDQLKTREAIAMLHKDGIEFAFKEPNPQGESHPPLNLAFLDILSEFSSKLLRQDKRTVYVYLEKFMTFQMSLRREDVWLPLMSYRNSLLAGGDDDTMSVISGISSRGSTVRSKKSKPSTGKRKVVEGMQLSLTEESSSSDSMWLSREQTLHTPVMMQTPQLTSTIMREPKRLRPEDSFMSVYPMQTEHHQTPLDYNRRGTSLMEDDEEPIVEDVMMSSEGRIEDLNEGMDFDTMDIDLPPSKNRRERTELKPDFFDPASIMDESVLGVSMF

T2: SMC1A (human (endogenous in Mel290)) (UniProt Q14683)
T2 sequence: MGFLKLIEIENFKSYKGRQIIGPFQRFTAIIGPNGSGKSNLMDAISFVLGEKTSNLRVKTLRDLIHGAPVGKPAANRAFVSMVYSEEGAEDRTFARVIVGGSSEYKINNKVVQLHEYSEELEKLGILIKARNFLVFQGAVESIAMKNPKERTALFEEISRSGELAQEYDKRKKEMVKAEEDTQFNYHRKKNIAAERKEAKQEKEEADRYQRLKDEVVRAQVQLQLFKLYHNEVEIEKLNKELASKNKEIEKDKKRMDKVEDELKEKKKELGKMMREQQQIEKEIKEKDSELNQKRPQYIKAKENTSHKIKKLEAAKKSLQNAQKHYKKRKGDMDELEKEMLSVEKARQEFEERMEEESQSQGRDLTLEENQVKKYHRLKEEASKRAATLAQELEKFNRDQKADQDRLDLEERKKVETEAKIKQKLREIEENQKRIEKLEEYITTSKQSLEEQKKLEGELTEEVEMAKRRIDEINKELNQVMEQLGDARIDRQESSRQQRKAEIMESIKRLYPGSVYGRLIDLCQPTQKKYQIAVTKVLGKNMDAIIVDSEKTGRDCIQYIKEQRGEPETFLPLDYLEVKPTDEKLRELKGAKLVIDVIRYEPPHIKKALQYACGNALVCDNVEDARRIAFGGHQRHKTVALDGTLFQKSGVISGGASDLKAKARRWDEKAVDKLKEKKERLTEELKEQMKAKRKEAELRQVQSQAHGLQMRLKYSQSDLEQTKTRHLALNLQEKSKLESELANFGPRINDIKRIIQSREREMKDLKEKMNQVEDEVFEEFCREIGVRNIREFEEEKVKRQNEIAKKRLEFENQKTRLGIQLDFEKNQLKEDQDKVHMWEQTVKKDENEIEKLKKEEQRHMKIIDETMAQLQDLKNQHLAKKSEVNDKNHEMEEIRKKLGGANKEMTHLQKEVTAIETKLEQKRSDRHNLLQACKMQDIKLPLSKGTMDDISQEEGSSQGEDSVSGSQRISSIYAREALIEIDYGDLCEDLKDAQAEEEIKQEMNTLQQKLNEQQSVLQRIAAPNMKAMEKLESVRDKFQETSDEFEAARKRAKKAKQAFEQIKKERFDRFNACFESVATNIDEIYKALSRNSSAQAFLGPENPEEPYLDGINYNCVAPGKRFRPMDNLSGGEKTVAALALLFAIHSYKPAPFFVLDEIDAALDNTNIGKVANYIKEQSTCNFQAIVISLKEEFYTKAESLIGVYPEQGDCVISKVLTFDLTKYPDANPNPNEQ


Experiments:
[1] = target: T1, STAG2 (human (endogenous in Mel290)); test: co-IP; co-IP of PRAME with SMC1A or STAG2 (Supplementary Fig. 4); bait, construct and cells not told in the text shown
[2] = target: T2, SMC1A (human (endogenous in Mel290)); test: co-IP; endogenous SMC1A immunoprecipitated from Mel290 lysate with or without PRAME expression (4 weeks); Western blot for STAG2 and SMC1A

binding [1]	binding [2]	Molecule
no binding		PRAME (as used in the co-IP of Supplementary Fig. 4) (from UniProt P78395 1-509)
	binds	STAG2 (protein, UniProt Q8N3U4 1-1231) MIAAPEIPTDFNLLQESETHFSSDTDFEDIEGKNQKQGKGKTCKKGKKGPAEKGKGGNGGGKPPSGPNRMNGHHQQNGVENMMLFEVVKMGKSAMQSVVDDWIESYKHDRDIALLDLINFFIQCSGCKGVVTAEMFRHMQNSEIIRKMTEEFDEDSGDYPLTMAGPQWKKFKSSFCEFIGVLVRQCQYSIIYDEYMMDTVISLLTGLSDSQVRAFRHTSTLAAMKLMTALVNVALNLSINMDNTQRQYEAERNKMIGKRANERLELLLQKRKELQENQDEIENMMNAIFKGVFVHRYRDAIAEIRAICIEEIGIWMKMYSDAFLNDSYLKYVGWTMHDKQGEVRLKCLTALQGLYYNKELNSKLELFTSRFKDRIVSMTLDKEYDVAVQAIKLLTLVLQSSEEVLTAEDCENVYHLVYSAHRPVAVAAGEFLYKKLFSRRDPEEDGMMKRRGRQGPNANLVKTLVFFFLESELHEHAAYLVDSMWDCATELLKDWECMNSLLLEEPLSGEEALTDRQESALIEIMLCTIRQAAECHPPVGRGTGKRVLTAKEKKTQLDDRTKITELFAVALPQLLAKYSVDAEKVTNLLQLPQYFDLEIYTTGRLEKHLDALLRQIRNIVEKHTDTDVLEACSKTYHALCNEEFTIFNRVDISRSQLIDELADKFNRLLEDFLQEGEEPDEDDAYQVLSTLKRITAFHNAHDLSKWDLFACNYKLLKTGIENGDMPEQIVIHALQCTHYVILWQLAKITESSSTKEDLLRLKKQMRVFCQICQHYLTNVNTTVKEQAFTILCDILMIFSHQIMSGGRDMLEPLVYTPDSSLQSELLSFILDHVFIEQDDDNNSADGQQEDEASKIEALHKRRNLLAAFCKLIVYTVVEMNTAADIFKQYMKYYNDYGDIIKETMSKTRQIDKIQCAKTLILSLQQLFNEMIQENGYNFDRSSSTFSGIKELARRFALTFGLDQLKTREAIAMLHKDGIEFAFKEPNPQGESHPPLNLAFLDILSEFSSKLLRQDKRTVYVYLEKFMTFQMSLRREDVWLPLMSYRNSLLAGGDDDTMSVISGISSRGSTVRSKKSKPSTGKRKVVEGMQLSLTEESSSSDSMWLSREQTLHTPVMMQTPQLTSTIMREPKRLRPEDSFMSVYPMQTEHHQTPLDYNRRGTSLMEDDEEPIVEDVMMSSEGRIEDLNEGMDFDTMDIDLPPSKNRRERTELKPDFFDPASIMDESVLGVSMF
